Measurements from the supplement of paper PMC10849652.
Some of the results follow.

Sequences of proteins named here, by UniProt entry; tags and fusion partners are left off. A change or cut given only in a name is not applied to a line headed by its entry.
UniProt Q17R31: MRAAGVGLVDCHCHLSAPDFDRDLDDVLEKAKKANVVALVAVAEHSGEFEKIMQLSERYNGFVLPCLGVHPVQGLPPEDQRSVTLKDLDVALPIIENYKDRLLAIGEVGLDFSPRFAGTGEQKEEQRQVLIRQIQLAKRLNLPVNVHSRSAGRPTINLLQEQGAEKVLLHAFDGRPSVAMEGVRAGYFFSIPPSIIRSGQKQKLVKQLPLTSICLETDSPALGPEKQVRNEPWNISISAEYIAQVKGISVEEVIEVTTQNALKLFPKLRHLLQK
UniProt O60499: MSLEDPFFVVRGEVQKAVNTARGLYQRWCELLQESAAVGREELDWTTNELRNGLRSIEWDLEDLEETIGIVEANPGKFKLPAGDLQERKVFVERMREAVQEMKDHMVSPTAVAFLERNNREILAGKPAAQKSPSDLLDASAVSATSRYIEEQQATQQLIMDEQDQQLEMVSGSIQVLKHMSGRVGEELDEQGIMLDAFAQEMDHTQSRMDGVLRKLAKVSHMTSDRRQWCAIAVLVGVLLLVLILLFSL
UniProt O43760: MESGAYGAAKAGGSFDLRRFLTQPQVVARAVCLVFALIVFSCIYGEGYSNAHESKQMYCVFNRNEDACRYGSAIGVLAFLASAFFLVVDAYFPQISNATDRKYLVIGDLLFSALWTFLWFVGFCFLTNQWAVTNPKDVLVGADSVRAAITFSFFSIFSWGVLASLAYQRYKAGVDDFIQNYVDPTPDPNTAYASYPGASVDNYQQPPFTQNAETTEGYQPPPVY
UniProt Q96I99: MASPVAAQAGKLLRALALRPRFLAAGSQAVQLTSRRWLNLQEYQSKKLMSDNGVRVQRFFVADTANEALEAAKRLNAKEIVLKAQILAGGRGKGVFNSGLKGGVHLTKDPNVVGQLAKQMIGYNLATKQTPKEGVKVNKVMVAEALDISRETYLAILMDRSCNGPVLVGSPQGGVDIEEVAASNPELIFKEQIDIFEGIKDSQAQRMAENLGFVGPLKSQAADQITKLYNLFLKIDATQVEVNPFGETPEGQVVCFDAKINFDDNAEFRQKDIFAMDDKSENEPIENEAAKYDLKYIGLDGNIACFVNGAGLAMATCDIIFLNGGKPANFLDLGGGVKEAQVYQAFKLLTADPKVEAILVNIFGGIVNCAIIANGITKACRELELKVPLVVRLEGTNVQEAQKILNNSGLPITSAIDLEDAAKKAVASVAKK
UniProt Q8TCJ2: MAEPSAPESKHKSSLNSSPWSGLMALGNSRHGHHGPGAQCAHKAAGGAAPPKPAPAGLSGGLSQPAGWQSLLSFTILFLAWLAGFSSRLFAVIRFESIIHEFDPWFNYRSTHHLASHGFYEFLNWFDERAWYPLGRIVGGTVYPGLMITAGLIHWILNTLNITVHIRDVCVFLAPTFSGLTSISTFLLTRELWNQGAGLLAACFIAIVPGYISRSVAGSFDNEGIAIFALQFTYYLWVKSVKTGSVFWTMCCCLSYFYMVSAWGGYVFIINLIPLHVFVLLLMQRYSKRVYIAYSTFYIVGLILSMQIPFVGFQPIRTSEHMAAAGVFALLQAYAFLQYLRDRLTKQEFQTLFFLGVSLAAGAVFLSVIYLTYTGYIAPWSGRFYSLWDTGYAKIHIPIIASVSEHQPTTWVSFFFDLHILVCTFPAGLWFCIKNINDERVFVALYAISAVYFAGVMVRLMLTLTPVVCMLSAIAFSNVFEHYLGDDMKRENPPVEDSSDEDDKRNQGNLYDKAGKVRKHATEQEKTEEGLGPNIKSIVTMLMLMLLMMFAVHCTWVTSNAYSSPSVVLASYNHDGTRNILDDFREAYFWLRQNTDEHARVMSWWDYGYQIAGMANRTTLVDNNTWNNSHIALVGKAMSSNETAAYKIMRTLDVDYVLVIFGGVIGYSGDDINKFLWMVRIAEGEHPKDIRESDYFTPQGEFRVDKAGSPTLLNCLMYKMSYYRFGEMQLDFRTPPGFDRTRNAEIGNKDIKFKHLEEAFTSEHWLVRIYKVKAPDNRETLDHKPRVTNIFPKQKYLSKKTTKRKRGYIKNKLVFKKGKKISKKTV
UniProt P37802: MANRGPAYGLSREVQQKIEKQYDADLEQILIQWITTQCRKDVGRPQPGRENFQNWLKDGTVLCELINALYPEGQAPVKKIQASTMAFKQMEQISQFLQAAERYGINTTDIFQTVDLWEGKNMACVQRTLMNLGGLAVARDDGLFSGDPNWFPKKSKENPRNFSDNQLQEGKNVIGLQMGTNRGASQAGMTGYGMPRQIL
UniProt Q12962, whole entry, looked up: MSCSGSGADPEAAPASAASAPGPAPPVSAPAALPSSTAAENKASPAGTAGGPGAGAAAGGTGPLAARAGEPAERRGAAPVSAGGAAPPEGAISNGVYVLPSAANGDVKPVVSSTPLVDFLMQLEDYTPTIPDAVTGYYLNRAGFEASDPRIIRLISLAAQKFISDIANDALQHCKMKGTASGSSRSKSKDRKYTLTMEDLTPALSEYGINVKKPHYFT
UniProt Q6NXT6: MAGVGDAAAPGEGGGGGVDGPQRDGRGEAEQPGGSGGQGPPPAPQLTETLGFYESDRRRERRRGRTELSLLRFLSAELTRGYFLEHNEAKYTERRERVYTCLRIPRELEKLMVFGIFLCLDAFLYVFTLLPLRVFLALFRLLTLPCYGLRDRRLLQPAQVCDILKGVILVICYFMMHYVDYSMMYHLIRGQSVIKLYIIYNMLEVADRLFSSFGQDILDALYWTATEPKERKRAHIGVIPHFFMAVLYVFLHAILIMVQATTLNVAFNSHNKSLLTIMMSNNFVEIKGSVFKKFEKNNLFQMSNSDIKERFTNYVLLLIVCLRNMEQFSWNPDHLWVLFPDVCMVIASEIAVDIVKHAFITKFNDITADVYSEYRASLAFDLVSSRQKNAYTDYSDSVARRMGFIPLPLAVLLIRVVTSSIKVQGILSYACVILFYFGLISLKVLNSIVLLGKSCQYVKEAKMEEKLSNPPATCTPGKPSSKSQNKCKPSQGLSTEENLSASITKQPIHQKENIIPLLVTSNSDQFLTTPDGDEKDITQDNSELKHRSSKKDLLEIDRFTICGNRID
UniProt Q15545, whole entry, looked up: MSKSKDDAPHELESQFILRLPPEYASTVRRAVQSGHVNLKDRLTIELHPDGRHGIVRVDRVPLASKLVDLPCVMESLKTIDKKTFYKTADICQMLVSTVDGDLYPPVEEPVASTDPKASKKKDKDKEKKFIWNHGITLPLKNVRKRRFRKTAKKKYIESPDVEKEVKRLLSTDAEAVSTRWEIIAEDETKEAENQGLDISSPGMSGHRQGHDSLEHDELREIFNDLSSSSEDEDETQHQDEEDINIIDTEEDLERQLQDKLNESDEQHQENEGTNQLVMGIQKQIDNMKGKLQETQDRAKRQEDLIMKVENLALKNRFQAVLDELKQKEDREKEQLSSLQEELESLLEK
UniProt Q15750: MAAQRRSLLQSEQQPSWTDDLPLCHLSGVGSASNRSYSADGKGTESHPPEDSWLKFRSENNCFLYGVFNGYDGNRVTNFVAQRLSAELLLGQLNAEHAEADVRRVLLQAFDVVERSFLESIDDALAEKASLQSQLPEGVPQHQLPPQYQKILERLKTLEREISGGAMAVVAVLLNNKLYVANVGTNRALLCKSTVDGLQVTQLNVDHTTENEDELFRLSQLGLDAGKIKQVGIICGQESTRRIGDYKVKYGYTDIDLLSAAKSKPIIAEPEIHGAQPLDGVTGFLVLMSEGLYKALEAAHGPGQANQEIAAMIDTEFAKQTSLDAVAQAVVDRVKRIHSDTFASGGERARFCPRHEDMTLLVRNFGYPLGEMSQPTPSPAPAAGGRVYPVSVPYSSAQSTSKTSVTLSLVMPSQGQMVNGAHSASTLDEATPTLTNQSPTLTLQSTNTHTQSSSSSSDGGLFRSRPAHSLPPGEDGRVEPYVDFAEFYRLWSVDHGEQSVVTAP
UniProt Q8N300: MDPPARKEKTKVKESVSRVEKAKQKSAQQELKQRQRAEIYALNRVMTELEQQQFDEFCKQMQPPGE
UniProt O60506: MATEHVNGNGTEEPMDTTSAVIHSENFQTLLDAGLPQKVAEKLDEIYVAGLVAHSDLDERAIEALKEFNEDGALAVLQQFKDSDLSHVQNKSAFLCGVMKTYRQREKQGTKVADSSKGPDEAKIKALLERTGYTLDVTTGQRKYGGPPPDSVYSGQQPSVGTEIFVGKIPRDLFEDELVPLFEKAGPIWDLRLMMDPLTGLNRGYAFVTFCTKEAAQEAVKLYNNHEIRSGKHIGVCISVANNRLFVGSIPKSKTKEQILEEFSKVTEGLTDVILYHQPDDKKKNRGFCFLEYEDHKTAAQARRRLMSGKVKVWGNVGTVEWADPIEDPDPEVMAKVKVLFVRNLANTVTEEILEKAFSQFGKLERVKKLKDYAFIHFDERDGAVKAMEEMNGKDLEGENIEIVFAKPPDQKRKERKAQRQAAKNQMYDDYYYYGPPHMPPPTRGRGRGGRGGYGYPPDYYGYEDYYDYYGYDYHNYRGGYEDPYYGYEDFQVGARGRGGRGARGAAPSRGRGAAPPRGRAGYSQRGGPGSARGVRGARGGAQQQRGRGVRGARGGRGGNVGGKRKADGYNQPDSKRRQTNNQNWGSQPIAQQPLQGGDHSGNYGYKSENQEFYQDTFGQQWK
UniProt Q7Z422: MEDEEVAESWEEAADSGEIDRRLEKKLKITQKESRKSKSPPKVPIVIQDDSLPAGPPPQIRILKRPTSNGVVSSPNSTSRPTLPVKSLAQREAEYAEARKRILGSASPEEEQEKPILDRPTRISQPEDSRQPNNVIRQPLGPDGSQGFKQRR
UniProt Q86TM6, whole entry, looked up: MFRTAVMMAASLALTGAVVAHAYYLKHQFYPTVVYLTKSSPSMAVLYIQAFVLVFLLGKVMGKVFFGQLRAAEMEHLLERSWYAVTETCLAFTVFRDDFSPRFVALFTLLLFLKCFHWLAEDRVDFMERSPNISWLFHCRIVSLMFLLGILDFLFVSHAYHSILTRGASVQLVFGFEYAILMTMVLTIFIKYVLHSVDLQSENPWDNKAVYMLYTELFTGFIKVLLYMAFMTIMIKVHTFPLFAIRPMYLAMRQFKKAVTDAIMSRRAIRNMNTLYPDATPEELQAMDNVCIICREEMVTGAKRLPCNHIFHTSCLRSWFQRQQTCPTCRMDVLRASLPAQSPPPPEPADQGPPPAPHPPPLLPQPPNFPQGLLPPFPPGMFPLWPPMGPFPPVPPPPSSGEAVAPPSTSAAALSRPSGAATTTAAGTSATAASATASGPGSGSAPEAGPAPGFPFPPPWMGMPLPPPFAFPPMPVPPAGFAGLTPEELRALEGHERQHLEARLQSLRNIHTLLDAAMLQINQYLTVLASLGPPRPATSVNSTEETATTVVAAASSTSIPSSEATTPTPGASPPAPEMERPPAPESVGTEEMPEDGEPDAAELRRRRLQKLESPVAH
UniProt Q7Z7C8, whole entry, looked up: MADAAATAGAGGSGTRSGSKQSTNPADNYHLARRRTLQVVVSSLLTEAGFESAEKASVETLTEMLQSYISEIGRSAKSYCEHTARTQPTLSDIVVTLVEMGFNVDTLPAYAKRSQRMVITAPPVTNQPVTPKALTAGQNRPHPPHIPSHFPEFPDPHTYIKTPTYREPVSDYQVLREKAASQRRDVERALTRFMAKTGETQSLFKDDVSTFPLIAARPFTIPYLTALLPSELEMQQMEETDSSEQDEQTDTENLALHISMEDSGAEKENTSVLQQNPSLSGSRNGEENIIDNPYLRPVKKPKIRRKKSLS
UniProt Q92804: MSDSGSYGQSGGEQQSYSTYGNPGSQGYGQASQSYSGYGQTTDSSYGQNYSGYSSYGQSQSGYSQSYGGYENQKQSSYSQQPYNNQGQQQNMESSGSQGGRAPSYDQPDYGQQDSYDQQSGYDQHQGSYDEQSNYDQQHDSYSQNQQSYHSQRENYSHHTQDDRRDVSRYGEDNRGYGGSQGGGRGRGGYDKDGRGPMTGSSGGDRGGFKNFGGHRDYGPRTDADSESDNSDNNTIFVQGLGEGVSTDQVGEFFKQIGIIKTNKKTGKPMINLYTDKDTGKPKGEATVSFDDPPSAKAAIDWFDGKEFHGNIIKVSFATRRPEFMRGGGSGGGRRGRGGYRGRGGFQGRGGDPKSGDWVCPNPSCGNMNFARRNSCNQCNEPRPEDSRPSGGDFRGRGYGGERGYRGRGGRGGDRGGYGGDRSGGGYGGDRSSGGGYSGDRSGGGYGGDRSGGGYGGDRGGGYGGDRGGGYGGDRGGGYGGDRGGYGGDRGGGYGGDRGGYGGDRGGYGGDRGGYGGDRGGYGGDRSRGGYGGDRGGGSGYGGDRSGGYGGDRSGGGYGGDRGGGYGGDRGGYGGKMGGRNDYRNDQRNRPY
UniProt Q86Y82: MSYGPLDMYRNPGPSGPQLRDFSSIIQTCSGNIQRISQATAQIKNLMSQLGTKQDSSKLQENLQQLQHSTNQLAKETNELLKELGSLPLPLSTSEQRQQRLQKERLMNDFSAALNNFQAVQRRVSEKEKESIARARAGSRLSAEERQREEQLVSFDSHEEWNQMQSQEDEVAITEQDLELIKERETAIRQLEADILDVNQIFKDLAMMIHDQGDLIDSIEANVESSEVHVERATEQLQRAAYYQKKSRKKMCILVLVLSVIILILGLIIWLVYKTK

compound: NC(=O)Nc1cc(-c2cccc(F)c2)sc1C(=O)N[C@H]1CCCNC1; experiment: log2 fold change, soluble protein after heating vs DMSO (PISA); higher = thermal stabilisation; K562 cells, 10 uM, 30 min; active = over 0.2 and 3.5 SD of the protein, either way, in both replicates (recomputed)
Outline: (§1)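 K562 cells at 2×10^6 cells/mL were exposed to 10 μM compound for 30 min, then aliquots were heated for 3 min across 48°C-58°C, pooled, and extracted in PBS containing 0.5% NP-40 at 4°C. The supernatant after 21,000xg for 90 min was taken as soluble protein and measured by TMTpro 16plex LC-MS/MS with channel sums equalised. Thermal stability is reported relative to control samples, with values from duplicates. Fold changes are given on a log2 scale.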

log2 fold change, inactive:
TATDN3 isoform 3 (UniProt Q17R31) -0.039
SYNJ1 (UniProt O43426) -0.105
SYNJ2BP-COX16, A0A087WYV9 -0.016
STX10 (UniProt O60499) 0.026
SYNGR2 (UniProt O43760) -0.016
SYNRG (UniProt Q9UMZ2) -0.022
SUCLG2 (UniProt Q96I99) 0.004
TAF2 (UniProt Q6P1X5) -0.005
STT3A (UniProt P46977) -0.004
SUCO (UniProt Q9UBS9) -0.066
STT3B (UniProt Q8TCJ2) -0.026
TAGLN2 isoform 2 (UniProt P37802) -0.025
STRN4 isoform 3 (UniProt Q9NRL3) -0.04
STRIP1 (UniProt Q5VSL9) 0.101
TAF10 (UniProt Q12962) 0.022
SUPV3L1 (UniProt Q8IYB8) -0.024
TACO1 (UniProt Q9BSH4) -0.054
SYAP1 (UniProt Q96A49) 0.019
TARDBP (UniProt Q13148) 0.043
STXBP1 (UniProt P61764) 0.042
TAPT1 (UniProt Q6NXT6) -0.016
TACC3 (UniProt Q9Y6A5) 0.022
STX5 (UniProt Q13190) -0.03
STMN1 (UniProt P16949) 0.029
TAF7 (UniProt Q15545) -0.02
SUGT1 (UniProt Q9Y2Z0) -0.02
TAB1 (UniProt Q15750) 0.017
SVBP (UniProt Q8N300) 0.125
SYNCRIP (UniProt O60506) 0
SZRD1 (UniProt Q7Z422) -0.056
TARSL2 (UniProt A2RTX5) -0.023
SYVN1 (UniProt Q86TM6) 0.001
TAF8 isoform 2 (UniProt Q7Z7C8) 0.073
STX16 isoform 2 (UniProt O14662) -0.037
TAF15 (UniProt Q92804) 0
TANGO2 isoform 4 (UniProt Q6ICL3) -0.06
STX12 (UniProt Q86Y82) -0.02
STRIP2 (UniProt Q9ULQ0) 0.25
STRADA (UniProt Q7RTN6) -0.034

compound: NC(=O)c1cnc(N[C@@H]2CCCC[C@@H]2N)nc1Nc1cccc(-n2nccn2)c1; experiment: as above
Outline: as §1

log2 fold change, inactive:
TATDN3 isoform 3 (UniProt Q17R31) 0.014
SYNJ1 (UniProt O43426) 0.027
SYNJ2BP-COX16, A0A087WYV9 -0.064
STX10 (UniProt O60499) 0.07
SYNGR2 (UniProt O43760) -0.014
SYNRG (UniProt Q9UMZ2) -0.055
SUCLG2 (UniProt Q96I99) -0.045
TAF2 (UniProt Q6P1X5) -0.029
STT3A (UniProt P46977) -0.04
SUCO (UniProt Q9UBS9) 0.037
STT3B (UniProt Q8TCJ2) -0.051
TAGLN2 isoform 2 (UniProt P37802) 0.008
STRN4 isoform 3 (UniProt Q9NRL3) 0.005
STRIP1 (UniProt Q5VSL9) 0.021
TAF10 (UniProt Q12962) -0.005
SUPV3L1 (UniProt Q8IYB8) -0.054
TACO1 (UniProt Q9BSH4) -0.123
SYAP1 (UniProt Q96A49) -0.077
TARDBP (UniProt Q13148) -0.018
STXBP1 (UniProt P61764) -0.067
TAPT1 (UniProt Q6NXT6) -0.038
TACC3 (UniProt Q9Y6A5) -0.06
STX5 (UniProt Q13190) 0.026
STMN1 (UniProt P16949) 0.011
TAF7 (UniProt Q15545) -0.049
SUGT1 (UniProt Q9Y2Z0) -0.039
TAB1 (UniProt Q15750) -0.001
SVBP (UniProt Q8N300) 0.082
SYNCRIP (UniProt O60506) 0.019
SZRD1 (UniProt Q7Z422) -0.006
TARSL2 (UniProt A2RTX5) -0.042
SYVN1 (UniProt Q86TM6) -0.051
TAF8 isoform 2 (UniProt Q7Z7C8) 0.021
STX16 isoform 2 (UniProt O14662) 0.14
TAF15 (UniProt Q92804) 0.032
TANGO2 isoform 4 (UniProt Q6ICL3) -0.1
STX12 (UniProt Q86Y82) 0.109
STRIP2 (UniProt Q9ULQ0) -0.028
STRADA (UniProt Q7RTN6) -0.008
